No constants are given. Whether binding was seen depends on the method and setting. In cells and extracts the contact can be indirect. A yes stands for co-enrichment or nearness to the bait. Other partners may have been found.
Target: Flag-CRBN (cereblon) (UniProt Q96SW2)
Experiment: affinity purification with mass spectrometry

Amino acid sequences for entries named in this document (tags omitted).
UniProt Q96SW2: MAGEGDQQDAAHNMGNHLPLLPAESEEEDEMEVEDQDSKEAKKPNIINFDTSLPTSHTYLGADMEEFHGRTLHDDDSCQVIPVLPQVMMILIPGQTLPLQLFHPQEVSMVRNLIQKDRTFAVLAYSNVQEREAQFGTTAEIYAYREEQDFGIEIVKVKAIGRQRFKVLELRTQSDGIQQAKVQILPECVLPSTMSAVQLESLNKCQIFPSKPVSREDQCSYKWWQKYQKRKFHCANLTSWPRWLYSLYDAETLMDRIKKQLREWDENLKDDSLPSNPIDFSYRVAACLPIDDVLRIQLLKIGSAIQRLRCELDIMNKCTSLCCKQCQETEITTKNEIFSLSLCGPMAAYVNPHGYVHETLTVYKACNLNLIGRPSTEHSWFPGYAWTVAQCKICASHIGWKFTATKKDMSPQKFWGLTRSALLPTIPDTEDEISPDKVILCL
UniProt Q13620: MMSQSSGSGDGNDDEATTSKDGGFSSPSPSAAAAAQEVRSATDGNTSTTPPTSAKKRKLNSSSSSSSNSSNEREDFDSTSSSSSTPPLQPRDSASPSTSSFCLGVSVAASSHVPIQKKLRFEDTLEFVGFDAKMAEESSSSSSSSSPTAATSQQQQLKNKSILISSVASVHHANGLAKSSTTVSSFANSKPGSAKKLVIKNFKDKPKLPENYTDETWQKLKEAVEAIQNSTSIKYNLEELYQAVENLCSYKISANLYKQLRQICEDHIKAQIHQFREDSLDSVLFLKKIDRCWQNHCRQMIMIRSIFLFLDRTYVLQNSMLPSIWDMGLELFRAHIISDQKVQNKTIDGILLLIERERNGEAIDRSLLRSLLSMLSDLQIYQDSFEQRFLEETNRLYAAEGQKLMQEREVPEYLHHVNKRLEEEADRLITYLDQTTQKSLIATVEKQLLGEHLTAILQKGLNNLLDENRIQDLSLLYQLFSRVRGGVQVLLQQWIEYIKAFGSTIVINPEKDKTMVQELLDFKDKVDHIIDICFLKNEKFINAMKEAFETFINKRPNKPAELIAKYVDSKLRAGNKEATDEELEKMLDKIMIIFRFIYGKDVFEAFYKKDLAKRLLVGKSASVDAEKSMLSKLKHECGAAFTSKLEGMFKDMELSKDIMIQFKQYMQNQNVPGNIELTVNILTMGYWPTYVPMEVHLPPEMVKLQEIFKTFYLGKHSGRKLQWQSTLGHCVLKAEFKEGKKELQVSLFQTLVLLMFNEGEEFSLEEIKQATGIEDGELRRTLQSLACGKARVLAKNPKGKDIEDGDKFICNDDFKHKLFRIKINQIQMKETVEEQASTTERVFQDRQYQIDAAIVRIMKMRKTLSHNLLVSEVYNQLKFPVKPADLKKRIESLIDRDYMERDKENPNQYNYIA
UniProt Q13619: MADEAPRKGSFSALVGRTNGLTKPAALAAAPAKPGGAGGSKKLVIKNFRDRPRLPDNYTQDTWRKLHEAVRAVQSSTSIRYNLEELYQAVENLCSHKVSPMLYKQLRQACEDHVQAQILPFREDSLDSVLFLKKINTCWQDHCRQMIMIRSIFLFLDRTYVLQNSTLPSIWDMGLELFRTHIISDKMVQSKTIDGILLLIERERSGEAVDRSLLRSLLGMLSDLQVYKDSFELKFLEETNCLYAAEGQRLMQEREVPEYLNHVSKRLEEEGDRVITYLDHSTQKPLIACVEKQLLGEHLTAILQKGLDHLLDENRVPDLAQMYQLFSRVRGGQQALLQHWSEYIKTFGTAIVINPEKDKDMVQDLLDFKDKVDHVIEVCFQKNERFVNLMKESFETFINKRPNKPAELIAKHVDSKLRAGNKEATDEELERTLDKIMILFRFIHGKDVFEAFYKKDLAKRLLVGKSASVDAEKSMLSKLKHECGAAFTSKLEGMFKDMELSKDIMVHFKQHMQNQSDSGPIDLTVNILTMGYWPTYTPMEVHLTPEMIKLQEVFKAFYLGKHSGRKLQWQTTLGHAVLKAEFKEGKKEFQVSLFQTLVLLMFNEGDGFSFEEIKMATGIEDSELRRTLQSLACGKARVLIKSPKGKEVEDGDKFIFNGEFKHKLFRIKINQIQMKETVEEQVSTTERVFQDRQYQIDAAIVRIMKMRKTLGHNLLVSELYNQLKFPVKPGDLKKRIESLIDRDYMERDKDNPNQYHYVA

| binding | Substance |
| --- | --- |
| binds | Cullin-4B (CUL4B) (from UniProt Q13620 1-913) |
| binds | Cullin-4A (CUL4A) (from UniProt Q13619 1-759) |

Source: paper doi:10.1101/2021.07.12.452075
